# Assay results published in PubChem BioAssay AID445 (National Center for Advancing Translational Sciences (NCATS), 2006).
# Some of the results follow. The main result of the screen is listed elsewhere. These columns were measured beside it and carry no call. Most of these compounds were active or inconclusive in the main read-out, so they are no random draw. The note in brackets gives the kind of curve behind each potency; many fits are weak.
# Test: IkB Signaling
# Conditions: ABC-DLBCL IkBa-CBG/CBR dual luciferase ratio (green luciferase fused to IkBa over red control in OCI-Ly3 lymphoma cells), 4 h
# Procedure, shortened: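 Curves were fitted separately to fusion (green), unfused (red) and ratio luminescence, then classed by r2, magnitude and activity. Cells: OCI-Ly3, 4 h compound plus doxycycline at 37C; 10 uM MG-132 defined full response.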
# [1] = measured here: control luc red channel unless noted
structure (smiles),measurement,setting,value
CCOC(=O)c1cnc2ccc(C)cc2c1Nc1ccc(OCc2ccccc2Cl)cc1,AC50,[1],"10 µM [falling, partial curve]"
COc1ccc2oc(-c3ccc(C)c(NC(=O)c4cccnc4)c3)nc2c1,AC50,[1],"39.8 µM [falling, single point]"
CC1CCN(c2oc(-c3cccs3)nc2S(=O)(=O)c2ccc(Cl)cc2)CC1,AC50,[1],"12.6 µM [falling, partial curve]"
Cc1cc(C(=O)CN(Cc2ccc(F)cc2)S(=O)(=O)c2ccc3c(c2)OCCO3)c(C)n1C,AC50,[1],"12.6 µM [falling, partial curve]"
Cc1ccc(OCC(=O)Nc2ccc3nc(SCC(=O)N4CCCC4)sc3c2)cc1,AC50,[1],"31.6 µM [falling, partial curve]"
CCOC(=O)c1c(SCC(=O)Nc2nc3ccc(C)cc3s2)nc(=O)[nH]c1C,AC50,[1],"1.58 µM [falling, partial curve]"
Oc1ccc(Nc2nc(N3CCCC3)c3ccccc3n2)cc1,AC50,measured here: IkB-luc green channel,"39.8 µM [falling, single point]"
same,AC50,measured here: control luc red channel,"15.8 µM [falling, partial curve]"
Cc1cccc(CSc2cn(CC(=O)N3CCCCC3)c3ccccc23)c1,AC50,[1],"10 µM [falling, partial curve]"
N/C(=N\O)c1ccc(NC(=O)c2cccs2)cc1,AC50,[1],"7.94 µM [falling, partial curve]"
Clc1ccc(Cn2ncc3c(N4CCOCC4)ncnc32)cc1,AC50,[1],"20 µM [falling, partial curve]"
Cn1c(=O)n(C)c2cc(NS(=O)(=O)c3ccc(Br)cc3)c(NCc3ccccc3)cc21,AC50,[1],"31.6 µM [falling, partial curve]"
CCN(CC)CCCNC(=O)c1c(C)oc2ncn(CC(C)C)c(=O)c12,AC50,[1],"39.8 µM [falling, single point]"
CC1CCc2c(sc(NC(=O)CCCOc3ccc(C(C)(C)C)cc3)c2C(N)=O)C1 (stereo not drawn),AC50,[1],"12.6 µM [falling, partial curve]"
C=CCOc1ccc2c(c1)c(S(=O)(=O)c1ccc(C)cc1)cn2COC,AC50,[1],"31.6 µM [falling, single point]"
COc1cc(Br)c(C2CC(=O)Nc3cc(OC)c(OC)c(OC)c32)cc1OC (stereo not drawn),AC50,[1],"20 µM [falling, partial curve, poor fit]"
O=c1c2ccccc2nnn1CSc1nnc(-c2cccs2)n1Cc1ccccc1,AC50,[1],"39.8 µM [falling, single point]"
Cc1oc(-c2cccc(Br)c2)nc1CN1CCC(C(=O)NCCc2ccc(Cl)cc2)CC1,AC50,[1],"15.8 µM [falling, single point]"

# Two entries picked at random from the list so far:
structure (smiles),measurement,setting,value
Cc1cc(C(=O)CN(Cc2ccc(F)cc2)S(=O)(=O)c2ccc3c(c2)OCCO3)c(C)n1C,AC50,[1],"12.6 µM [falling, partial curve]"
N/C(=N\O)c1ccc(NC(=O)c2cccs2)cc1,AC50,[1],"7.94 µM [falling, partial curve]"
